Drawing on the supplement of paper PMC6411743, this text covers NP40-soluble protein abundance for 37 targets.

Sequences of proteins named here, by UniProt entry; tags and fusion partners are left off. A change or cut given only in a name is not applied to a line headed by its entry.
UniProt O94903: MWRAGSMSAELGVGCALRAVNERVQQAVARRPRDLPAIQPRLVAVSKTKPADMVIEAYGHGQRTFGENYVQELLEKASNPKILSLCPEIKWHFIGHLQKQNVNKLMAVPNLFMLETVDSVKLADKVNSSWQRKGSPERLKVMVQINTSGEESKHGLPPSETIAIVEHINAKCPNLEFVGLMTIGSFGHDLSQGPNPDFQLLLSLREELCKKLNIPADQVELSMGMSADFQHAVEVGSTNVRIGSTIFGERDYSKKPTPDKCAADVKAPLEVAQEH
UniProt O75132: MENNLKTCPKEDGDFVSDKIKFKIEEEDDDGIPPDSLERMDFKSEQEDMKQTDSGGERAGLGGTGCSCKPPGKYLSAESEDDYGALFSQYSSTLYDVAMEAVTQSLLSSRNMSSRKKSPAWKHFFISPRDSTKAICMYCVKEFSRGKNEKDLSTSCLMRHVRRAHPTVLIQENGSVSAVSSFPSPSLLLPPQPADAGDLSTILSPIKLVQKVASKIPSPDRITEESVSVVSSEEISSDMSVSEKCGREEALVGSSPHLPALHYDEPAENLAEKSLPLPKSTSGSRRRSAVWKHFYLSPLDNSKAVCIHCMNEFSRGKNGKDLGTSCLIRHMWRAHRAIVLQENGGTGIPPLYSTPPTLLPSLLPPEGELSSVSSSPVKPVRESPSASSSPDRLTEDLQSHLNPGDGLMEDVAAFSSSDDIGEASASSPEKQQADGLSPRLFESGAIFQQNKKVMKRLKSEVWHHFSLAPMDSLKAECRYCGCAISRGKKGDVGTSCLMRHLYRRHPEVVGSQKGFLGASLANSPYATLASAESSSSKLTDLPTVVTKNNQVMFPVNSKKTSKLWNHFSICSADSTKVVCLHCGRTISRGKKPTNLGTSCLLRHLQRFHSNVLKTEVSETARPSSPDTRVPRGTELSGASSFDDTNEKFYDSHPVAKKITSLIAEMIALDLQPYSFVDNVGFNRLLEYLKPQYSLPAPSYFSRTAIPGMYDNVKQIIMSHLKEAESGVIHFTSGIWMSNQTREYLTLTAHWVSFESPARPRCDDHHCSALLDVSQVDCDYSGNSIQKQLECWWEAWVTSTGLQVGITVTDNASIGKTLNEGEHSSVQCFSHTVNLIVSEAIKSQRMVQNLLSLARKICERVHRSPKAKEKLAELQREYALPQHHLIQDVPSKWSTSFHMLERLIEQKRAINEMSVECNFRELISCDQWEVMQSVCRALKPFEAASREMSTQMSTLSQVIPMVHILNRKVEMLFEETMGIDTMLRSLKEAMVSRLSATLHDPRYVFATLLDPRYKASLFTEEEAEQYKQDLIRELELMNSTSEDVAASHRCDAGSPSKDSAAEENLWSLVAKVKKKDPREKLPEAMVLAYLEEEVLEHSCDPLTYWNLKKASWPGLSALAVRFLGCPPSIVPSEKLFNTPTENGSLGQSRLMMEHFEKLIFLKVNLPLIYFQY
UniProt O75369, whole entry: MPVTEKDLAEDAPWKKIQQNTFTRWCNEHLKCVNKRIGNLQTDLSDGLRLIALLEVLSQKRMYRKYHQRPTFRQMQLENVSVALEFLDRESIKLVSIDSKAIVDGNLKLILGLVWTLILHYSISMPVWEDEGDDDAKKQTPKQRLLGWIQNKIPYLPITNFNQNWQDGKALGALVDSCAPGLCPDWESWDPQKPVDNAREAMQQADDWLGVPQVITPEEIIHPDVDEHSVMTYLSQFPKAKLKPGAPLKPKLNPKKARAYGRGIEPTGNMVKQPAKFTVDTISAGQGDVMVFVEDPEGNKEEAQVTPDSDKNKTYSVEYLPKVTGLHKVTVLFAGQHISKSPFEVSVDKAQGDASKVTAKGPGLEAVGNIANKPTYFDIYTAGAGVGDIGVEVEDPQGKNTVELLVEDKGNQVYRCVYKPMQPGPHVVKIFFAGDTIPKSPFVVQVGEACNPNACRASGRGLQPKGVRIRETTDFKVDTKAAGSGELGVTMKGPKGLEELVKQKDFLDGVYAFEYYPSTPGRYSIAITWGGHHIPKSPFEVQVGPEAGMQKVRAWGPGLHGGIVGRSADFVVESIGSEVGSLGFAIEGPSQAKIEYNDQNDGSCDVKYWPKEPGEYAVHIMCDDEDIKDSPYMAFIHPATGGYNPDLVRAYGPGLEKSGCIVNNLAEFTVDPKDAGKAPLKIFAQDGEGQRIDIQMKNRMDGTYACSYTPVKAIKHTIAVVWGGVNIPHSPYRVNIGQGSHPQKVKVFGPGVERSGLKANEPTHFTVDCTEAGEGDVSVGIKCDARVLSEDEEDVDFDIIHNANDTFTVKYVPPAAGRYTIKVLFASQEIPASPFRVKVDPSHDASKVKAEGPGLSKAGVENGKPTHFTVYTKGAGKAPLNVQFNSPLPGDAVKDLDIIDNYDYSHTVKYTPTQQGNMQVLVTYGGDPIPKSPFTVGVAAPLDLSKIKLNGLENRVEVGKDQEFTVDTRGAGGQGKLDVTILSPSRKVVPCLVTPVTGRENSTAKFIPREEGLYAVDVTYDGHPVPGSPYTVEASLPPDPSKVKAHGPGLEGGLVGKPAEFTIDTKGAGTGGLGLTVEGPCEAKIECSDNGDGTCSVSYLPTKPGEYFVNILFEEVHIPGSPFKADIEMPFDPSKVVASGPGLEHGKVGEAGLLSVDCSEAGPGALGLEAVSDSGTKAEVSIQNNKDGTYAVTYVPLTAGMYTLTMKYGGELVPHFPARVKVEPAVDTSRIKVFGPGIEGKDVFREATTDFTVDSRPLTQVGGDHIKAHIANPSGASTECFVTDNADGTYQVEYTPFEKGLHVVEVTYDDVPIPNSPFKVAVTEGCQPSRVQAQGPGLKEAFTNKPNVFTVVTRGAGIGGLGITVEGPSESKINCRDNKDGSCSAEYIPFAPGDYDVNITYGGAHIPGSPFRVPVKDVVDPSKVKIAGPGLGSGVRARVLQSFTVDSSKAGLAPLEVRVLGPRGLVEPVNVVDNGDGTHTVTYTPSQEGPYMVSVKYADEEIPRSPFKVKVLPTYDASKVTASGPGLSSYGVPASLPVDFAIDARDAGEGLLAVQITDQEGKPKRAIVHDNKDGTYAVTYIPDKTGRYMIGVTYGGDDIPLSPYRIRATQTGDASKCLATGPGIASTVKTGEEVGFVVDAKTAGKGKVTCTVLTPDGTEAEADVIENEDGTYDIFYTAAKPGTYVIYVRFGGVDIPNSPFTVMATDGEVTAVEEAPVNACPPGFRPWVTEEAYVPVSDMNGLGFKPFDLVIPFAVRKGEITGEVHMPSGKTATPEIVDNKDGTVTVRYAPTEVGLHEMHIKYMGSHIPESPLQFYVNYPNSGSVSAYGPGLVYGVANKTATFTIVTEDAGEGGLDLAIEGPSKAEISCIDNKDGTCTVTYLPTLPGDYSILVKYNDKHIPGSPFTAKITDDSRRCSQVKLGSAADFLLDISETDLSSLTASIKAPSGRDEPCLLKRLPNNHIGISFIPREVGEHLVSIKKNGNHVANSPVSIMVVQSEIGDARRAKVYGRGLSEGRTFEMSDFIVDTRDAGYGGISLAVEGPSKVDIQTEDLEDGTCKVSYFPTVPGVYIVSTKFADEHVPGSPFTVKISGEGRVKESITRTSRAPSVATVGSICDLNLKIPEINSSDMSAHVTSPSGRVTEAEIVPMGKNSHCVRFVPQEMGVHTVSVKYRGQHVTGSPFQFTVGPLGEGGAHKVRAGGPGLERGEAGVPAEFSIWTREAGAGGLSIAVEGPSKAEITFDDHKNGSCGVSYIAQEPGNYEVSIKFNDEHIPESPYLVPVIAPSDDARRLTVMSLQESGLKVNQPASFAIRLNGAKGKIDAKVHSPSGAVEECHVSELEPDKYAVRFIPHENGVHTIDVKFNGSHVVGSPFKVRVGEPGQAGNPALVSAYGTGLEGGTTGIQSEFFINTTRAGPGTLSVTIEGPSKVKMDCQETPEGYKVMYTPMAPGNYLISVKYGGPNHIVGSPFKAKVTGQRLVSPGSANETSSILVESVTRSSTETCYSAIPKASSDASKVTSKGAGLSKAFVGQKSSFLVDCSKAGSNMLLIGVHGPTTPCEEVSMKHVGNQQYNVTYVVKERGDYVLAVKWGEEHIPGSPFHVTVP
UniProt O76031, whole entry: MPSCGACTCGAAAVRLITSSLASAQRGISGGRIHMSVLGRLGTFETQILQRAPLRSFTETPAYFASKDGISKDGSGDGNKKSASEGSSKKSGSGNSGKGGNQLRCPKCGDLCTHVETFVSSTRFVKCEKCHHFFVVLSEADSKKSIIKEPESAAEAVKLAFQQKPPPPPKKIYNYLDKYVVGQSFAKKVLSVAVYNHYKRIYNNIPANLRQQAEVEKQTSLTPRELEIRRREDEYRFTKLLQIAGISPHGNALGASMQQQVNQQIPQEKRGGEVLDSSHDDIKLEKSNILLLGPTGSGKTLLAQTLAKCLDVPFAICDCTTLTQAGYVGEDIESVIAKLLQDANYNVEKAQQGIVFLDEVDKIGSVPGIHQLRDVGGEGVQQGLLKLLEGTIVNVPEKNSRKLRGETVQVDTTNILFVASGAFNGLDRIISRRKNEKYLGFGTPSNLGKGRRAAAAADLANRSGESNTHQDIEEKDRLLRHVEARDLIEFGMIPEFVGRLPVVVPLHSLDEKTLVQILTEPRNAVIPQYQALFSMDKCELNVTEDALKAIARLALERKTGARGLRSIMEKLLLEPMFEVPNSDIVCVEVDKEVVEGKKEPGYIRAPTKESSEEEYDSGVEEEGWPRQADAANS
UniProt O75935, whole entry: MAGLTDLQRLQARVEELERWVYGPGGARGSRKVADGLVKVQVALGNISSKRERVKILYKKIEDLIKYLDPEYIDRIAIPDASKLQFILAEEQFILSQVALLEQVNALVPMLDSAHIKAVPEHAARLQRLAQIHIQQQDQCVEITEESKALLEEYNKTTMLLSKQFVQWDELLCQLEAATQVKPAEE
UniProt O75150, whole entry: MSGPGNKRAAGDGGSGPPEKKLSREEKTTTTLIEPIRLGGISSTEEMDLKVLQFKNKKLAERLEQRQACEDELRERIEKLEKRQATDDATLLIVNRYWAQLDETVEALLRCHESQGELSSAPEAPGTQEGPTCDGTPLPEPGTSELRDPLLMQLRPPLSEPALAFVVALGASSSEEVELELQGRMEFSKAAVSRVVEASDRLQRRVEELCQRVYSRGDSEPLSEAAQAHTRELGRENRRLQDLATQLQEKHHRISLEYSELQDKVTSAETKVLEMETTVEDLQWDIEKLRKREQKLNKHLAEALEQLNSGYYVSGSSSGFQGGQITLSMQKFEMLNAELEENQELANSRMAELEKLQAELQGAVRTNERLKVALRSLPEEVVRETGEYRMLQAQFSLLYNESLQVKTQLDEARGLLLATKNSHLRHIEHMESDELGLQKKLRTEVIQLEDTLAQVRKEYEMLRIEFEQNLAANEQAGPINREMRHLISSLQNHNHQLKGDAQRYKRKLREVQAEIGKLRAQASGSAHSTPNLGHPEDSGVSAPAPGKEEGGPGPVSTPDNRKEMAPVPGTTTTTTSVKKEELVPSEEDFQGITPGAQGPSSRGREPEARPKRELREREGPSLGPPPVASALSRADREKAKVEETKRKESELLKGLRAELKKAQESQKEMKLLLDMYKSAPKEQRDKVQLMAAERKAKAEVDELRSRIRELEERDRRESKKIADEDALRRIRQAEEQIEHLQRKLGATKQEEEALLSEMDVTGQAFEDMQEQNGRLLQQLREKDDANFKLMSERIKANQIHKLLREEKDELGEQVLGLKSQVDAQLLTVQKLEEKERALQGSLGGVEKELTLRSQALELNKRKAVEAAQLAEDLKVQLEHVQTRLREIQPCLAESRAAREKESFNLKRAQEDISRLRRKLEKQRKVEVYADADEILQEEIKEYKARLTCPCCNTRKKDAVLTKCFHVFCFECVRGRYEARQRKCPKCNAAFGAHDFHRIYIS
UniProt O75616: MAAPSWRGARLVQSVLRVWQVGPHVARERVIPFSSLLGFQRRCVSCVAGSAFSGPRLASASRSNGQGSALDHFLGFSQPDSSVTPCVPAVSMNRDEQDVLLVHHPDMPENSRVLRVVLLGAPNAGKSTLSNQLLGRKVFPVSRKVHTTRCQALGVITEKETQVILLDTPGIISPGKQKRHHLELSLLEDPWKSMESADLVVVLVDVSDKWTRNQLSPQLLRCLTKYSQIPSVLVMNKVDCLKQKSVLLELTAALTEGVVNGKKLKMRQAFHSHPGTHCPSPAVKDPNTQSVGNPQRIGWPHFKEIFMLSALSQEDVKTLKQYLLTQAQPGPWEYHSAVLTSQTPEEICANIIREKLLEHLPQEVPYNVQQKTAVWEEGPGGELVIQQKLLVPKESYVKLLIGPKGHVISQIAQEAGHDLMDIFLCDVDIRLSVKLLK
UniProt O60828: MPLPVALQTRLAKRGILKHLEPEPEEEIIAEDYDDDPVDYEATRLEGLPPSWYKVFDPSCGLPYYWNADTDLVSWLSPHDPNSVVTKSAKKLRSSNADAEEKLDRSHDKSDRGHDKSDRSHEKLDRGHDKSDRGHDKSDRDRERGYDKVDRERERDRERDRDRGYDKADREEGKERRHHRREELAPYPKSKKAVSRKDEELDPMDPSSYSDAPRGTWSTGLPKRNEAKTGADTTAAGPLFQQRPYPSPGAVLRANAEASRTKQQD

± gives the standard deviation of the averaged measurements. The list shows a part of the results, in another mix than the full data. Small differences around the control level are noise.

Compound in the experiment: Nc1ncnc2c1ncn2[C@@H]1O[C@H](COP(=O)(O)OP(=O)(O)OP(=O)(O)O)[C@@H](O)[C@H]1O [adenosine triphosphate]
As to the kind of experiment: NP40-soluble protein abundance relative to vehicle (solubility fold change) (ratio); higher = more soluble protein in presence of ATP. Conditions: concentration: 0.5mM. Put shortly:
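Jurkat crude lysate (Dounce-homogenised) was treated with eight concentrations from 0.1 to 10 mM for 10 min at room temperature, then 3 min at 37 °C. It was solubilised with 0.8% NP40 and benzonase (60 min, 4 °C) and ultracentrifuged, and the supernatant was TMT-labelled for LC-MS/MS. Intensities were vsn-normalised, and the value is the fold change against the NP40-processed vehicle per replicate, from three independent experiments.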
For TIPRL (UniProt O75663), the NP40-soluble protein abundance came to 1.04 ± 0.082.
In the case of MTRF1 (UniProt O75570) it was 1.08 ± 0.091.
In the case of UniProt O60443 and related entries it was 0.958 ± 0.052.
In the case of UniProt O94927, the NP40-soluble protein abundance came to 0.964 ± 0.044.
With UniProt O94903 the figure was 1.01 ± 0.085; with UniProt O94966-6|O94966-7|O94966-4, 0.984 ± 0.021.
In the case of UniProt O95429 and related entries it was 1.08 ± 0.36.
In the case of NDUFS6 (UniProt O75380) it was 0.933 ± 0.025; in that of UniProt O94762 and related entries, 1.02 ± 0.025.
For UniProt O60488 and related entries, the NP40-soluble protein abundance amounted to 1.1 ± 0.079.
Turning to CCNK (UniProt O75909), the NP40-soluble protein abundance is 1.09 ± 0.044.
With UniProt O95613 and related entries the figure was 1.04 ± 0.037; with WDHD1 (UniProt O75717), 1.01 ± 0.052; with USP1 (UniProt O94782), 0.983 ± 0.065.
With HERC2 (UniProt O95714) the figure was 1.04 ± 0.066; with SNUPN (UniProt O95149), 1.03 ± 0.063.
With UniProt O60733 and related entries the figure was 0.942 ± 0.048.
In the case of UniProt O75688 and related entries, the NP40-soluble protein abundance was 0.987 ± 0.042.
In the case of ZC3H11A (UniProt O75152) it was 0.907 ± 0.043; in that of ZBED4 (UniProt O75132), 1.02 ± 0.049.
With RP2 (UniProt O75695) the figure was 1.02 ± 0.064; with NDUFS3 (UniProt O75489), 0.994 ± 0.044; with DNAJA2 (UniProt O60884), 1.01 ± 0.068.
In the case of “UniProt O75369-8|O75369-9|O75369 and related entries” it was 1.02 ± 0.068.
CLPX (UniProt O76031): the NP40-soluble protein abundance was 1.02 ± 0.031.
Take PFDN1 (UniProt O60925): the NP40-soluble protein abundance stood at 0.895 ± 0.087.
In the case of UniProt O94973 and related entries it was 1.07 ± 0.055; in that of UniProt O75410 and related entries, 0.973 ± 0.012; in that of UniProt O75935 and related entries, 0.872 ± 0.14.
Consider B3GAT3 (UniProt O94766), for which the NP40-soluble protein abundance stood at 0.979 ± 0.034.
For UniProt O60858 and related entries, the NP40-soluble protein abundance was determined as 1.09 ± 0.033.
In the case of CPD (UniProt O75976) it was 0.942 ± 0.044; in that of UniProt O75150 and related entries, 0.992 ± 0.03.
In the case of ERAL1 (UniProt O75616) it was 1.11 ± 0.18; in that of UniProt O60828 and related entries, 1 ± 0.035.
In the case of POLR1A (UniProt O95602) it was 1.06 ± 0.018.
Regarding PRKRA (UniProt O75569), the NP40-soluble protein abundance worked out at 0.972 ± 0.052.
